The list shows a part of the results.
How the values were obtained:
[1] = compounds raising F508del-CFTR protein level – cell-based, HeLa F508del-CFTR, immunofluorescence, viability, primary screen (AID 1224863); settings: immunofluorescence total CFTR, 24 h, measured here: primary viability 25 uM, at 25 µM, library dosed in µM, stronger effect = higher value;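 on fold increase: total CFTR protein by anti-CFTR immunofluorescence in fixed cells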
[2] = biological target: Cystic fibrosis transmembrane conductance regulator (Homo sapiens) (UniProt P13569); test: as above; settings: immunofluorescence total CFTR, 24 h, measured here: primary screen single dose 25 uM, at 25 µM, library dosed in µM, stronger effect = higher value

Protein sequences, listed by entry. Tags and fused reporters are not part of them. Chains listed by the source or under a name are the forms on record and can include a tag or linker.
UniProt P13569, with tags, fused parts or gaps F508del: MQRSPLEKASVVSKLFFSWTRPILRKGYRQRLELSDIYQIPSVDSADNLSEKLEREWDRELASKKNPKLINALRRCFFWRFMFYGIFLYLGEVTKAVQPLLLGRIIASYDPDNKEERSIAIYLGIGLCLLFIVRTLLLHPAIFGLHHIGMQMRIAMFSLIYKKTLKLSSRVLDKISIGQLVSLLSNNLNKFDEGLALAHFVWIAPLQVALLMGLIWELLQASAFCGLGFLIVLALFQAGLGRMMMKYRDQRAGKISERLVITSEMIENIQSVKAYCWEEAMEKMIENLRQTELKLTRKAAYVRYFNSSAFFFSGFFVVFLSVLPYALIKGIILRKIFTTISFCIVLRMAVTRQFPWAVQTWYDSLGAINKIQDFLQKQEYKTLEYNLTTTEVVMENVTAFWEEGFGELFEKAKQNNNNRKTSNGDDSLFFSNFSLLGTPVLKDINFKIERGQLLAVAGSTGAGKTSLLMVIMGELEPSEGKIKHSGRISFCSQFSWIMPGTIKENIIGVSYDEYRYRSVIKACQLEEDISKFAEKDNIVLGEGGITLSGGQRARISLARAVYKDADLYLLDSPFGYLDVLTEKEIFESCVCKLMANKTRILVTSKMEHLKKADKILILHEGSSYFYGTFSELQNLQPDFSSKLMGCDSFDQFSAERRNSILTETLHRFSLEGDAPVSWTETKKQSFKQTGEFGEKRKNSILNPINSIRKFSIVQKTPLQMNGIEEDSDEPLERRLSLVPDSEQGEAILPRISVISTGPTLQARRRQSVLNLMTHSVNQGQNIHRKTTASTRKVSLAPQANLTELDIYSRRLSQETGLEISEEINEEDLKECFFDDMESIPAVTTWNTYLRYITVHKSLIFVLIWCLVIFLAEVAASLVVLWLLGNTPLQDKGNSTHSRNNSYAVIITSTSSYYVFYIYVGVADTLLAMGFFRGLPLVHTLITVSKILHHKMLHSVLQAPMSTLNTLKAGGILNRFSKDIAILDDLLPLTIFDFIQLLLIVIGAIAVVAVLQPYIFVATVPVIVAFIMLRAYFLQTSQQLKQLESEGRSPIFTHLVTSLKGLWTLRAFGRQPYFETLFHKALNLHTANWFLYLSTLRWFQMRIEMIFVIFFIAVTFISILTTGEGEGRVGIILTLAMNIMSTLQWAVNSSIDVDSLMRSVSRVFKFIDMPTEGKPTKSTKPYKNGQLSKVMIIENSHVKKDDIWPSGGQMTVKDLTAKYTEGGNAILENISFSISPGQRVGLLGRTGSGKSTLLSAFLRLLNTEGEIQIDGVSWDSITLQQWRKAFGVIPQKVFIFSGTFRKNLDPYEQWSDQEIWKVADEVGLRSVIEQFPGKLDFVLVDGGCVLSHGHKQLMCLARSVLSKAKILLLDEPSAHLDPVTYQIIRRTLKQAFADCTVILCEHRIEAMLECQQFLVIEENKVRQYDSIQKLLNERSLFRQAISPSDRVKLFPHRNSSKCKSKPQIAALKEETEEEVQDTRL

Row | SMILES | viability [1] [%] | fold increase [2]
1 | NC(=O)Nc1ccc([As](=O)(O)O)cc1 | 85 | 1.01
2 | CN(C)CCS | 88 | 1.08
3 | OCCSCCO | 109 | 1.1
4 | C/C1=C2N=C(/C=C3N=C(/C(C)=C4\[N-]C([C@H](CC(N)=O)[C@@]4(C)CCC(=O)NCC(C)OP(=O)([O-])O[C@@H]4[C@@H](CO)OC(n5cnc6cc(C)c(C)cc65)[C@@H]4O)C4(C)N=C1C(CCC(N)=O)C4(C)CC(N)=O)C(CCC(N)=O)C\3(C)C)C(CCC(N)=O)C/2(C)CC(N)=O.[C-]#N.[Co+3] (stereo partly specified) | 73 | 1.11
5 | O=C(O[C@H]1CN2CCC1CC2)C1NCc2ccccc2[C@@H]1c1ccccc1 (stereo partly specified) | 112 | 1.09
6 | O=P(O)(O)F | 94 | 1.03
7 | O=C(OC1CN2CCC1CC2)c1ccccc1 (stereo unspecified) | 86 | 0.97
8 | C/C1=C2N=C(/C=C3N=C(/C(C)=C4\[N-][C@@](C)([C@@H]5N=C1[C@](C)(CCC(=O)NC[C@@H](C)OP(=O)([O-])O[C@H]1[C@@H](O)[C@@H](n6cnc7cc(C)c(C)cc76)O[C@@H]1CO)[C@H]5CC(N)=O)[C@@](C)(CC(N)=O)[C@@H]4CCC(N)=O)[C@@](C)(CC(N)=O)[C@@H]\3CCC(N)=O)C(C)(C)[C@@H]/2CCC(N)=O.[C-]#N.[Co+3] | 75 | 1.03
